Taken from: PubChem BioAssay AID1259263 (Sanger Institute, 2017)
Purpose: 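Find siRNA and drug combinations lethal together in bowel cancer cells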 (follow-up of hits). System: SW1463 human colorectal cancer cell line. Reagent: single siRNA against human genes. Challenge: anchor drugs BYL719 at 1 µM, cetuximab at 5 µg/ml or trametinib at 10 nM, or DMSO vehicle, added one day after siRNA transfection. Detection: 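Replicate-mean survival scaled to a non-targeting siRNA control, and a synergy score of actual versus predicted viability drop when siRNA and drug act together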. Direction: synergy score with trametinib and synergy score with BYL719 and synergy score with cetuximab: higher = stronger synthetic lethal effect with the drug; viability with trametinib: higher = more cells survive knock-down plus drug; viability with vehicle only: higher = more cells survive the knock-down. Rule for the call: 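Called active if the synergy score is above 0.10 for one or more of the three anchor drugs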. Calls: active = synergy with at least one drug; inactive = no synergy with any drug.
The deposit covers 160 reagents; shown is an unselected part. 101 of all reagents (63%) were called active. 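Drug doses chosen to kill few cells alone; each row is one siRNA, and a gene counts as confirmed only if two or more siRNAs show synergy.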 Reagents against one gene are numbered here. Viability is capped at 1. Not stated in the record: the amount of reagent, the time to read-out.

| gene knocked down | reagent | synergy score with trametinib | synergy score with BYL719 | synergy score with cetuximab | viability with trametinib (fraction of control) | viability with vehicle only (fraction of control) | call |
| --- | --- | --- | --- | --- | --- | --- | --- |
| MAP3K8 (mitogen-activated protein kinase kinase kinase 8) | 1 | -0.0278 | 0.19 | -0.00828 | 0.645 | 0.83 | – |
| MAP3K8 (mitogen-activated protein kinase kinase kinase 8) | 2 | 0.128 | 0.228 | 0.135 | 0.448 | 0.775 | active |
| MAP3K8 (mitogen-activated protein kinase kinase kinase 8) | 3 | 0.187 | 0.135 | -0.0413 | 0.507 | 0.934 | active |
| MAP3K8 (mitogen-activated protein kinase kinase kinase 8) | 4 | 0.26 | 0.0554 | 0.186 | 0.448 | 0.953 | active |
| HSPB8 (heat shock protein family B (small) member 8) | 1 | 0.146 | -0.118 | 0.0674 | 0.559 | 0.949 | active |
| HSPB8 (heat shock protein family B (small) member 8) | 2 | 0.212 | 0.053 | 0.0757 | 0.521 | 0.986 | active |
| HSPB8 (heat shock protein family B (small) member 8) | 3 | -0.182 | -0.142 | 0.0311 | 0.867 | 0.923 | inactive |
| HSPB8 (heat shock protein family B (small) member 8) | 4 | 0.18 | -0.0279 | 0.274 | 0.545 | 0.975 | active |

Hits, of those listed so far:
| gene knocked down | reagent | synergy score with trametinib | synergy score with BYL719 | synergy score with cetuximab | viability with trametinib (fraction of control) | viability with vehicle only (fraction of control) | call |
| --- | --- | --- | --- | --- | --- | --- | --- |
| MAP3K8 (mitogen-activated protein kinase kinase kinase 8) | 2 | 0.128 | 0.228 | 0.135 | 0.448 | 0.775 | active |
| MAP3K8 (mitogen-activated protein kinase kinase kinase 8) | 3 | 0.187 | 0.135 | -0.0413 | 0.507 | 0.934 | active |
| MAP3K8 (mitogen-activated protein kinase kinase kinase 8) | 4 | 0.26 | 0.0554 | 0.186 | 0.448 | 0.953 | active |
| HSPB8 (heat shock protein family B (small) member 8) | 1 | 0.146 | -0.118 | 0.0674 | 0.559 | 0.949 | active |
| HSPB8 (heat shock protein family B (small) member 8) | 2 | 0.212 | 0.053 | 0.0757 | 0.521 | 0.986 | active |
| HSPB8 (heat shock protein family B (small) member 8) | 4 | 0.18 | -0.0279 | 0.274 | 0.545 | 0.975 | active |

Further results:
| gene knocked down | reagent | synergy score with trametinib | synergy score with BYL719 | synergy score with cetuximab | viability with trametinib (fraction of control) | viability with vehicle only (fraction of control) | call |
| --- | --- | --- | --- | --- | --- | --- | --- |
| CHD4 (chromodomain helicase DNA binding protein 4) | 1 | 0.161 | 0.31 | -0.166 | 0.21 | 0.5 | active |
| CHD4 (chromodomain helicase DNA binding protein 4) | 2 | 0.0677 | 0.106 | -0.0965 | 0.262 | 0.444 | – |
| CHD4 (chromodomain helicase DNA binding protein 4) | 3 | -0.0675 | -0.0658 | -0.0306 | 0.37 | 0.407 | inactive |
| CHD4 (chromodomain helicase DNA binding protein 4) | 4 | 0.25 | -0.0902 | 0.218 | 0.478 | 0.979 | active |
| SYK (spleen associated tyrosine kinase) | 1 | -0.125 | -0.29 | -0.114 | 0.426 | 0.405 | inactive |
| SYK (spleen associated tyrosine kinase) | 2 | 0.0608 | -0.265 | -0.132 | 0.311 | 0.5 | inactive |
| SYK (spleen associated tyrosine kinase) | 3 | 0.171 | -0.0689 | 0.0267 | 0.203 | 0.504 | active |
| SYK (spleen associated tyrosine kinase) | 4 | 0.165 | -0.0704 | -0.0131 | 0.578 | 1 | active |
| CRIM1 (cysteine rich transmembrane BMP regulator 1) | 1 | -0.102 | 0.148 | 0.135 | 0.845 | 1 | – |
| CRIM1 (cysteine rich transmembrane BMP regulator 1) | 2 | -0.34 | 0.114 | -0.121 | 0.979 | 0.86 | – |
| CRIM1 (cysteine rich transmembrane BMP regulator 1) | 3 | 0.344 | 0.224 | -0.000604 | 0.303 | 0.871 | active |
| CRIM1 (cysteine rich transmembrane BMP regulator 1) | 4 | 0.234 | 0.105 | 0.125 | 0.496 | 0.982 | active |
